Laboratory results taken from the supplement of paper PMC11732987, “Enantioselective OTUD7B fragment discovery through chemoproteomics screening and high-throughput optimisation” (Communications Chemistry, 2025).
Some of the results follow. The data scatter; read single values as rough.

Protein sequences, listed by entry. Tags and fused reporters are not part of them. Lines headed by an entry give the natural chain unless they say otherwise; changes in a name come on top.
UniProt P16615: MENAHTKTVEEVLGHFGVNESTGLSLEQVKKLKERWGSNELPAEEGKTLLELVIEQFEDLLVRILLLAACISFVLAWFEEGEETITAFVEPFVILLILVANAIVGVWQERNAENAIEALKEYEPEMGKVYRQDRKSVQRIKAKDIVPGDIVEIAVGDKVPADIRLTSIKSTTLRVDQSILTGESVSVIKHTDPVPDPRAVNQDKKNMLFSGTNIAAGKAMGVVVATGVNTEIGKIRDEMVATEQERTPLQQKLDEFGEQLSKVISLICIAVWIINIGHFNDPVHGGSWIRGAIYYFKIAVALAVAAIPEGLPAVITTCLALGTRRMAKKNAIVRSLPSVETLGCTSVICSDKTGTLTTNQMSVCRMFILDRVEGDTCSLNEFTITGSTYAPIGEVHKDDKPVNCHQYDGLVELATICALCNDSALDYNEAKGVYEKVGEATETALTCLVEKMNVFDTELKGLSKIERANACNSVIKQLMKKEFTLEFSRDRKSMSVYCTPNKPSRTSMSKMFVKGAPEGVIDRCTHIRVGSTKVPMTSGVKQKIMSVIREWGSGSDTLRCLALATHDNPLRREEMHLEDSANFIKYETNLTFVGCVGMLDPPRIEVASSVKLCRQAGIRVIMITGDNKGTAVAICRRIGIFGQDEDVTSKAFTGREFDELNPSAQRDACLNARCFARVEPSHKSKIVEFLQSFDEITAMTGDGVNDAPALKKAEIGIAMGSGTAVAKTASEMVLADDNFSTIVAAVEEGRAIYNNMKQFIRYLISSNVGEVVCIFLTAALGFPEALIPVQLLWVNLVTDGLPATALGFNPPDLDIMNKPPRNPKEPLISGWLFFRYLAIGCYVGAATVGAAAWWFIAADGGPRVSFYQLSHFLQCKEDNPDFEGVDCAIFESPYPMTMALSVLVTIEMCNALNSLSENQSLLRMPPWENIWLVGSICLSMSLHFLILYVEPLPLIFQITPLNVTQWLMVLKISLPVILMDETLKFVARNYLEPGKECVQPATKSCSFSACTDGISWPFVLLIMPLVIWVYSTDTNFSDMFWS
UniProt Q13315: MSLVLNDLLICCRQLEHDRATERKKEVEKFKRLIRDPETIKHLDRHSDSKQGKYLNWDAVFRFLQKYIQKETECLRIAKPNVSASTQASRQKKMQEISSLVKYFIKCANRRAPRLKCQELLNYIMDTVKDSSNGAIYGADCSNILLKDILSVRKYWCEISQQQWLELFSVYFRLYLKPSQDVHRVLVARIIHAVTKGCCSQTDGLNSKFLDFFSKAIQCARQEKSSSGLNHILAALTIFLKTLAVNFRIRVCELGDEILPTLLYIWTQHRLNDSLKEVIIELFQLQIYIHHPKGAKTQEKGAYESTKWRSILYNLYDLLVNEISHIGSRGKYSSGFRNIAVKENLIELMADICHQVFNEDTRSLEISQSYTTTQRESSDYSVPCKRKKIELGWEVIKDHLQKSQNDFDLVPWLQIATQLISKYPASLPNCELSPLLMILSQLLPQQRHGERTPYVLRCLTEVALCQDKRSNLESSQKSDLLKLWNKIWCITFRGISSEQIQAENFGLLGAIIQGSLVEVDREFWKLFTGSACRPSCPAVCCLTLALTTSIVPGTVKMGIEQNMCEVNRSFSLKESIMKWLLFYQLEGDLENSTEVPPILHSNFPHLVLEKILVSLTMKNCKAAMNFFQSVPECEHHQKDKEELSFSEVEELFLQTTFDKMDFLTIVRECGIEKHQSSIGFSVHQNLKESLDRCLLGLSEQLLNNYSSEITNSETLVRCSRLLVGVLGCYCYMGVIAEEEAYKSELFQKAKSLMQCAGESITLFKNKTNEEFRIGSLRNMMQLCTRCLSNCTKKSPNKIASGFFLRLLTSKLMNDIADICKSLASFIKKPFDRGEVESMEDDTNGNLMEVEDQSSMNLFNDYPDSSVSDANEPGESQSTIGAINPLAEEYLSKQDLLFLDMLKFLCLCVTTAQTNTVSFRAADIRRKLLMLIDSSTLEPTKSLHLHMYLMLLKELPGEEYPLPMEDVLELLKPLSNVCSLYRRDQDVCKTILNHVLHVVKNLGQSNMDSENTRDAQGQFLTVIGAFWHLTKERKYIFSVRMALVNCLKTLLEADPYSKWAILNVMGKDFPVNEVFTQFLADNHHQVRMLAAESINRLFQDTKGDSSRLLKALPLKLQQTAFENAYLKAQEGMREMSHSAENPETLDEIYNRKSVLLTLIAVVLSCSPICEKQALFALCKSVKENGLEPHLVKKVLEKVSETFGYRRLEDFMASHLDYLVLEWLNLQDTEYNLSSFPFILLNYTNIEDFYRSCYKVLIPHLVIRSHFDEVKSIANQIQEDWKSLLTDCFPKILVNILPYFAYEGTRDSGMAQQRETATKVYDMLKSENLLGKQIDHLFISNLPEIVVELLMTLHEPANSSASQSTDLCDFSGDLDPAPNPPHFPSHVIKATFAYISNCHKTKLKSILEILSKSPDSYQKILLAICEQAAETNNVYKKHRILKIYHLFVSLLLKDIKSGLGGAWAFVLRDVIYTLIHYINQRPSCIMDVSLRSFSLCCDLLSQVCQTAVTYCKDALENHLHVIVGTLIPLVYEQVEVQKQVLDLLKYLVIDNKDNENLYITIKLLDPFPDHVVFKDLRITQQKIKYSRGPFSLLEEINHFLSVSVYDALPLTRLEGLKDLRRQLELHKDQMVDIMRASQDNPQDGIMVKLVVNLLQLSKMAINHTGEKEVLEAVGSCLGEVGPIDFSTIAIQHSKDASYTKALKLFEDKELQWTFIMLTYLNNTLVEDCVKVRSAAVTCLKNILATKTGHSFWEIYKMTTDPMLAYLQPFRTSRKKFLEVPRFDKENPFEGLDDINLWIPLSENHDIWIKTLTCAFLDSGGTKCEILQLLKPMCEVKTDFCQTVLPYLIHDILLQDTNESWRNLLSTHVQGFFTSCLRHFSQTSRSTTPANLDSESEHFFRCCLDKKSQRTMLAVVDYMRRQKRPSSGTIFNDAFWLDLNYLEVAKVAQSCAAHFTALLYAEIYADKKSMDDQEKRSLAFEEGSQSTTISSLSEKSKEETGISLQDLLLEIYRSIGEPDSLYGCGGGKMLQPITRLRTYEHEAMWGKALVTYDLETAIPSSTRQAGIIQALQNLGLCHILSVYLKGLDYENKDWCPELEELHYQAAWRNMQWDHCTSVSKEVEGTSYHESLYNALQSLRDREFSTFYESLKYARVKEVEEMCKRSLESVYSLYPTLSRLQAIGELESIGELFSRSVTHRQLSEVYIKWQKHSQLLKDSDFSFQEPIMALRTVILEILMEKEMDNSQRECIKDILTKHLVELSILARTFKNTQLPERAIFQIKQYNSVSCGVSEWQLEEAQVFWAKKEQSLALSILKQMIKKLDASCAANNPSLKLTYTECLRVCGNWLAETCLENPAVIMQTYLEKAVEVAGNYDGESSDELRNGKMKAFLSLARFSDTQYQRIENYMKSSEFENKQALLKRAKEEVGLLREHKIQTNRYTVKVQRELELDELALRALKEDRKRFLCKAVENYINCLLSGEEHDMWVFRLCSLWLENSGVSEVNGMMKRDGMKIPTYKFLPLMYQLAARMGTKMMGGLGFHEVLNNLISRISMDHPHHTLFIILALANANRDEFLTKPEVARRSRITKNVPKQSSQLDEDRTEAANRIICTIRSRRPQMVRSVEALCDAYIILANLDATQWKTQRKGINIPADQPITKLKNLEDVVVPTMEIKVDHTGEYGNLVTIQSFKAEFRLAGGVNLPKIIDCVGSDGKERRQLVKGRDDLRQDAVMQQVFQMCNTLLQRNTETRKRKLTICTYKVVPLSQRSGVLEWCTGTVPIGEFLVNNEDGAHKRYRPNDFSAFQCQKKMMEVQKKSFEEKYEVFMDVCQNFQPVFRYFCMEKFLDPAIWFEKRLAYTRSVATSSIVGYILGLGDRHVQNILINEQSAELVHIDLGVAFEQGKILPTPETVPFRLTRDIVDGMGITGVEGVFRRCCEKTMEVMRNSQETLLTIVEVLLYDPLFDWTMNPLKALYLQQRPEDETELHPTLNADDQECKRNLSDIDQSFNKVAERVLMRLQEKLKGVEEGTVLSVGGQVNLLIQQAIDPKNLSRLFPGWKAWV
UniProt Q8WY36: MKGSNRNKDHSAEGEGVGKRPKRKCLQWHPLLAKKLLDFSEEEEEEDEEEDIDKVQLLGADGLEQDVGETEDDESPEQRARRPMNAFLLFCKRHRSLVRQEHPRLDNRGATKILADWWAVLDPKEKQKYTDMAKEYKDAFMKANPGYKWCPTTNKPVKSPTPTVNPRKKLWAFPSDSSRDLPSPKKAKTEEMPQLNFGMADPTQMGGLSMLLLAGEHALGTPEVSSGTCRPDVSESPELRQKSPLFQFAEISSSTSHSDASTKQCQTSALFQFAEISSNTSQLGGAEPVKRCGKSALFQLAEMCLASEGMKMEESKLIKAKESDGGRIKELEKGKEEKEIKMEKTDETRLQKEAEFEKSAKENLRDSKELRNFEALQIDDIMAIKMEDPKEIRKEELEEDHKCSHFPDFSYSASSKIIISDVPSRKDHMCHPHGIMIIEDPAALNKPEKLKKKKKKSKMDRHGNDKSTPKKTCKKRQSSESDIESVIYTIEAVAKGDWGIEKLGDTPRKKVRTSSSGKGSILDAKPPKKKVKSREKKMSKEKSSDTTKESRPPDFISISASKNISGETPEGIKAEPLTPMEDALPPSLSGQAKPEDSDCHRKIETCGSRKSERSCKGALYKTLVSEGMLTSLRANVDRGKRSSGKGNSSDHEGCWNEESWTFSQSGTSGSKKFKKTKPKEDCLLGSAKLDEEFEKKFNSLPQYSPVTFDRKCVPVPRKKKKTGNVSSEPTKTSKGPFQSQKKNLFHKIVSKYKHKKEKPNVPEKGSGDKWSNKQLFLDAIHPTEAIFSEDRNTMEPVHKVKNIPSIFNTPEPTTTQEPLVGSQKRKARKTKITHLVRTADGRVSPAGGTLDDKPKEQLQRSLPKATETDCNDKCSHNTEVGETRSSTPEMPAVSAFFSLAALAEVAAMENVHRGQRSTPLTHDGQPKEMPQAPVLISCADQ
UniProt Q9NRL2: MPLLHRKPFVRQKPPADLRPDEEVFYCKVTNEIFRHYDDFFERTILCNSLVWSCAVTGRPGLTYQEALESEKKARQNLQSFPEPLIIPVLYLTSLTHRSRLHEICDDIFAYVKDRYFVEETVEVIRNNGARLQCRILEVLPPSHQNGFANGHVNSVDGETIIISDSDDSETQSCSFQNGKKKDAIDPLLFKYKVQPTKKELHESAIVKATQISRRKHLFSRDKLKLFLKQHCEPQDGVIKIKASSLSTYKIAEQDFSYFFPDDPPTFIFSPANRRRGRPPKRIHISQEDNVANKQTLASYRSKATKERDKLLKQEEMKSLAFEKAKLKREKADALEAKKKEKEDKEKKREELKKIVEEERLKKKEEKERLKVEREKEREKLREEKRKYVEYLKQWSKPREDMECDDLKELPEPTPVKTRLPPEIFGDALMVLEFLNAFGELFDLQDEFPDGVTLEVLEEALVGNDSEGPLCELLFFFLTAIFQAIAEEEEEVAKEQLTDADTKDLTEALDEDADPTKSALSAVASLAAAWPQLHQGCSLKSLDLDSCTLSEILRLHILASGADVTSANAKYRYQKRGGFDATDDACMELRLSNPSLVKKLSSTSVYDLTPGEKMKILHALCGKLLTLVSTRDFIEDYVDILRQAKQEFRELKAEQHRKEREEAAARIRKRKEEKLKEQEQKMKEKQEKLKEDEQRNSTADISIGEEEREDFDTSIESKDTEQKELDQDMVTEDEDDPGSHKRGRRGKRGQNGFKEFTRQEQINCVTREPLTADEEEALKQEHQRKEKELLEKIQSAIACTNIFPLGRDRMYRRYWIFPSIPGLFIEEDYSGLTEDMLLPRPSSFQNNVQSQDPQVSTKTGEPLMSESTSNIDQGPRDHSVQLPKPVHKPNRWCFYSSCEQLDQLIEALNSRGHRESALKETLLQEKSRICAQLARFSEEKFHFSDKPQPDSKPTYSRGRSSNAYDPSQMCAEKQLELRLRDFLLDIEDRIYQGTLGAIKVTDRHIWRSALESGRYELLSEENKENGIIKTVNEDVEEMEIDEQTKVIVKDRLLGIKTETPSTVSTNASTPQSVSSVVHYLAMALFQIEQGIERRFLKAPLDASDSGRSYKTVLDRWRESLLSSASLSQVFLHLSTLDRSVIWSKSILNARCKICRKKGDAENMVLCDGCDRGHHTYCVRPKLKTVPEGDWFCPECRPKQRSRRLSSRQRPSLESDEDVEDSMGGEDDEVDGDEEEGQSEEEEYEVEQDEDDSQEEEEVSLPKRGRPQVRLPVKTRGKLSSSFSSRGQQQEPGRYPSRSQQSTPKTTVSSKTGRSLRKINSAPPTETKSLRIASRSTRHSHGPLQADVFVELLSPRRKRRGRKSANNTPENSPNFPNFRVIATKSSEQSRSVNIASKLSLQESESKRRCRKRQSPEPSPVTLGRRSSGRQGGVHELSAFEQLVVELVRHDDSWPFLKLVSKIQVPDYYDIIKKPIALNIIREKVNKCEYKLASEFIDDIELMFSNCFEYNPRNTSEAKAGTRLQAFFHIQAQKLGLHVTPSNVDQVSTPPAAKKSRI

Assays:
[1] = compound: ClCC(=O)N[C@@H]1CCCc2ccccc12; assay: log2 mean competition ratio of IA-DTB cysteine labelling (DMSO/compound) (log2 ratio); higher = stronger cysteine engagement by compound; details: treatment time: 4 h, cell line lysate: HEK293T
Protocol: (§1)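 IA-DTB competitive cysteine chemoproteomics in HEK293T RIPA lysate. Lysates were treated with compound 29 or 30 at 50 or 200 µM for 4 h, then IA-DTB (500 µM, 1 h), trypsin-digested, NeutrAvidin-enriched and analysed by diaPASEF. Competition ratio = intensity DMSO / intensity compound (n=4 treated, n=64 DMSO); binding: mean log2 CR ≥ 1 and p ≤ 0.05 plus QC filters. Target is the cysteine site.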

[2] = compound: ClCC(=O)N[C@H]1CCCc2ccccc12; assay: as above; details: treatment time: 4 h, cell line lysate: HEK293T
Protocol: as §1

Target | log2 mean competition ratio ([1]; 50 µM) | log2 mean competition ratio ([1]; 200 µM) | log2 mean competition ratio ([2]; 200 µM) | log2 mean competition ratio ([2]; 50 µM)
ASPM C2805 (UniProt Q8IZT6) | 0.0119 | -0.311 |  | 
ATP2A2 C997 (UniProt P16615) | -0.0969 | -0.0826 |  | 
ATG2A C1870 (UniProt Q2TAZ0) | -0.182 | 0.167 |  | 
ATE1 C205 (UniProt O95260) | 0.000286 | -0.41 |  | 
ATAD1 C359 (UniProt Q8NBU5) | -0.0916 | -0.0514 |  | 
ATR C753 (UniProt Q13535) | -0.0739 | -0.011 |  | 
ATM C2021 (UniProt Q13315) | -0.0824 | 0.0765 |  | 
BCAS3 C139 (UniProt Q9H6U6) | -0.121 | -0.0231 |  | 
BCAP29 C171 (UniProt Q9UHQ4) | -0.118 | -0.00642 |  | 
BAHD1 C535 (UniProt Q8TBE0) | 0.325 | 0.0517 |  | 
ASXL2 C1225 (UniProt Q76L83) | -0.179 | -0.0214 |  | 
BIRC6 C4443 | 0.0581 | 0.0243 |  | 
ATP2A3 C636 (UniProt Q93084) | 0.23 | -0.152 |  | 
BCOR C979 (UniProt Q6W2J9) | -0.0311 | 0.247 |  | 
ATAD5 C1720 (UniProt Q96QE3) | -0.0308 | -0.0212 |  | 
BBX C150 (UniProt Q8WY36) | 0.577 | -0.0855 |  | 
AURKB C170 (UniProt Q96GD4) | -0.0712 | 0.192 |  | 
AXIN1 C221 (UniProt O15169) | 0.0693 | 0.581 |  | 
BAIAP2 C195 (UniProt Q9UQB8) | 0.423 | 0.432 |  | 
ATP2C1 C477 (UniProt P98194) | 0.287 | 0.22 |  | 
ATP2B4 C639 (UniProt P23634) | -0.285 | 0.08 |  | 
BMP2K C92 (UniProt Q9NSY1) | 0.262 | 0.0987 |  | 
ATP2A2 C498 (UniProt P16615) | 0.132 | -0.0326 |  | 
BAZ1A C764 (UniProt Q9NRL2) | -0.265 | 0.0536 |  | 

Target | log2 mean competition ratio ([1]; 50 µM) | log2 mean competition ratio ([1]; 200 µM) | log2 mean competition ratio ([2]; 200 µM) | log2 mean competition ratio ([2]; 50 µM)
BCORL1 C972 (UniProt Q5H9F3) | 0.0197 | -0.0493 |  | 
BBX C870 (UniProt Q8WY36) | -0.359 | 0.281 |  | 
BCAS3 C258 (UniProt Q9H6U6) | 0.0798 | -0.266 |  | 
BCKDHB C316 (UniProt P21953) | 0.0721 | -0.286 |  | 
ATAD2 C1261 (UniProt Q6PL18) | -0.164 | 0.0326 |  | 
BDP1 C1797 (UniProt A6H8Y1) | -0.0461 | -0.242 |  | 
ATG7 C298 (UniProt O95352) | -0.254 | -0.002 |  | 
BDH1 C221 (UniProt Q02338) |  | 0.0353 |  | 
BCS1L C234 | 0.0938 | -0.133 |  | 
BBX C874 (UniProt Q8WY36) | -0.0842 | 0.186 |  | 
ATP2A2 C471 (UniProt P16615) | -0.0494 | -0.0877 |  | 
BAG3 C151 (UniProt O95817) | 0.147 | -0.426 |  | 
ATP2C1 C839 (UniProt P98194) | -0.406 | -0.434 | -0.389 | 
BAZ1A C105 (UniProt Q9NRL2) | -0.0623 | -0.0456 | -0.412 | -0.0217
ATP2B4 C537 (UniProt P23634) | 0.0453 | -0.346 |  | 
BDP1 C2126 (UniProt A6H8Y1) | -0.269 | -0.476 | -0.384 | 
BICD2 C754 (UniProt Q8TD16) | -0.162 | 0.346 |  | 
AVEN C169 (UniProt Q9NQS1) | -0.00448 | -0.0232 |  | 
ATP13A3 C168 (UniProt Q9H7F0) | 0.0635 | 0.0284 | -0.319 | 
ASXL2 C266 (UniProt Q76L83) | -0.134 | 0.0225 |  | 
BIRC6 C3830 | 0.256 | -0.386 |  | 
ASXL1 C672 (UniProt Q8IXJ9) | 0.0619 | 0.28 |  | 
ATM C2704 (UniProt Q13315) | -0.134 | -0.226 |  | 
BCL10 C57 (UniProt O95999) | -0.178 | 0.16 |  | 

Target | log2 mean competition ratio ([1]; 50 µM) | log2 mean competition ratio ([1]; 200 µM) | log2 mean competition ratio ([2]; 200 µM) | log2 mean competition ratio ([2]; 50 µM)
BIRC6 C1236 | -0.0635 | 0.168 |  | 
ATP13A1 C711 (UniProt Q9HD20) | -0.202 | -0.402 |  | 
BCOR_(C1334,C1334,C1341,C1341) (UniProt Q6W2J9) | -0.533 | 0.444 |  | -0.322
BAHCC1 C2578 (UniProt Q9P281) | -0.09 | -0.234 |  | 
ATP6V0D1 C326 (UniProt P61421) | 0.0551 | 0.179 |  | 
BEND3 C767 (UniProt Q5T5X7) | 0.105 | -0.00794 |  | 
AVEN C326 (UniProt Q9NQS1) | -0.443 | -0.26 |  | 
ATM C1286 (UniProt Q13315) | 0.0856 | -0.289 |  | 
BLOC1S3 C168 (UniProt Q6QNY0) | 0.253 | -0.129 | -0.0674 | 0.578
BAHCC1 C683 (UniProt Q9P281) | 0.428 | -0.0868 |  | 
ATP13A3 C1220 (UniProt Q9H7F0) | -0.471 | -0.456 | 0.0636 | 
ATF7 C398 (UniProt P17544) | 0.586 | 0.253 | 0.123 | 
ATG2B C739 (UniProt Q96BY7) | 0.0183 | -0.194 |  | 
ATXN1L C647 (UniProt P0C7T5) | -0.142 | 0.367 | 0.659 | 0.0918
ATR C1721 (UniProt Q13535) | -0.0652 | 0.129 |  | 
ATRX C450 (UniProt P46100) | 0.242 | -0.317 |  | 
BAZ1A C404 (UniProt Q9NRL2) | -0.581 | 0.104 | 0.0227 | -0.784
ASPM C95 (UniProt Q8IZT6) | 0.124 | -0.13 |  | 
ASPH C384 (UniProt Q12797) | -0.276 | 0.16 |  | 
ASPSCR1 C174 (UniProt Q9BZE9) | -0.269 | -0.318 | -0.00482 | 0.224
ATP7A C160 (UniProt Q04656) | -0.0359 | 0.151 |  | 
ATXN10 C283 (UniProt Q9UBB4) | -0.302 | 0.0779 |  | 
BCORL1 C617 (UniProt Q5H9F3) | -0.18 | -0.00428 |  | 
BBX C682 (UniProt Q8WY36) | 0.102 | 0.2 | 0.104 | 0.0692

Laid out differently: entries from further up
Target	log2 mean competition ratio ([1]; 50 µM)	log2 mean competition ratio ([1]; 200 µM)	log2 mean competition ratio ([2]; 200 µM)	log2 mean competition ratio ([2]; 50 µM)
BLOC1S3 C168 (UniProt Q6QNY0)	0.253	-0.129	-0.0674	0.578
BAHCC1 C683 (UniProt Q9P281)	0.428	-0.0868		
ATP13A3 C1220 (UniProt Q9H7F0)	-0.471	-0.456	0.0636	
ATF7 C398 (UniProt P17544)	0.586	0.253	0.123	
